Test results taken from patent publication US10273461B2, “Employing human adipose-derived stem cells to propagate serum-derived hepatitis C virus and use thereof” (FRONTIER BIO-DRUG DEVELOPMENT LIMITED, priority 2015, dated 2019).
For at least one compound, name, drawing or mass did not settle the structure.

Tested on: HCVser-1b
Experiment: Drug inhibition assay in HCVser-infected hADSC
Assay type: cell-based, hepatitis C virus
Details: p4-5 hADSC, graded concentrations, 21 days' cell lysates, qRT-PCR, IFNα as 16 h pretreatment

CCC[C@H](NC(=O)[C@@H]1[C@H]2CCC[C@H]2CN1C(=O)[C@@H](NC(=O)[C@@H](NC(=O)c1cnccn1)C1CCCCC1)C(C)(C)C)C(=O)C(=O)NC1CC1 [telaprevir]
HCV replication (viral 5'-UTR transcripts, fraction inhibition vs vehicle control): inhibited in a dose-responsive manner
